Assay results: publication PMC8085361

Sequences of proteins named here, by UniProt entry; tags and fusion partners are left off. Residues count along the entry.
UniProt P08138, residues 29-427: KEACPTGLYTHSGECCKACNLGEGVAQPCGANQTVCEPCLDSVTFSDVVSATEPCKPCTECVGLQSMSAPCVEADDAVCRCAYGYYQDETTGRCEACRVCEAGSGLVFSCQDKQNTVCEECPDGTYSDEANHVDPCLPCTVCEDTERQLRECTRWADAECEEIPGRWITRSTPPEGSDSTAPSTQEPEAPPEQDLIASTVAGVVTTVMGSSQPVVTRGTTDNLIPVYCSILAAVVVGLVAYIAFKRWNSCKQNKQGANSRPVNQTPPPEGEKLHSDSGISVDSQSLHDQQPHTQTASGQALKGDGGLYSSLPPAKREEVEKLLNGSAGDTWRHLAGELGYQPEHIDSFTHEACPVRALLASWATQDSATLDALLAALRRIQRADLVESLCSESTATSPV
UniProt P62258: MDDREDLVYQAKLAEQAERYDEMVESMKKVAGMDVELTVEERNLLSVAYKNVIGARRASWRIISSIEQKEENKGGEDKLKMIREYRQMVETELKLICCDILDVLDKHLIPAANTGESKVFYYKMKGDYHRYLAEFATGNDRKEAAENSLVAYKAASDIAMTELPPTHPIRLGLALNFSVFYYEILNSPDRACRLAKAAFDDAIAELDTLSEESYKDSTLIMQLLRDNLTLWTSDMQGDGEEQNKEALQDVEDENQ

Target: neurotrophin receptor p75NTR (human (endogenous in PMDC05)) (UniProt P08138)
Assay: affinity purification with mass spectrometry; endogenous p75NTR captured with antibody ME20.4 on protein G Dynabeads from lysate of 2 × 10^7 PMDC05 cells (130 mM NaCl, 50 mM HEPES pH 7.4, 1% Triton X-100), overnight at 4°C; acid elution fraction (0.1 M glycine pH 2.4) analysed by LC-MS/MS

binding: binds
Substance: 14-3-3ϵ (from UniProt P62258 1-255)

These are yes or no findings as the source states them, for the method shown. In cells and extracts the contact can be indirect. Here binding means that the protein was enriched with, or labelled near, the bait; the list need not be complete.
